Some of these results come from one statement about several compounds together.
Molecular target: PDE 4
Test: IC50 ratio: PDE 4 form binding rolipram with high affinity versus form binding with low affinity
Format: biochemical, human
Conditions: bind preferentially to the low affinity binding site; method of U.S. Pat. No. 5,998,428

How did the “IC50 ratio (IC50 for the PDE 4 catalytic form which binds rolipram with a high affinity divided by the IC50 for the form which binds rolipram with a low affinity)” value turn out when `COc1ccc([C@]2(C#N)CC[C@@H](C(=O)O)CC2)cc1OC1CCCC1` [cis-4-cyano-4-[3-(cyclopentyloxy)-4-methoxyphenyl]cyclohexane-1-carboxylic acid] was run?
Its value is ≥ 0.1.

Reference: patent US20050070514A1, “Therapies for treating respiratory diseases” (priority 2001, published 2005)
